{
  "source": "patent US20250136694A1",
  "about": "(HARBOUR BIOMED SHANGHAI, published 2025)",
  "molecular_target": "T1, human B7-H4 (protein in solution, BLI) (human, UniProt Q7Z7D3 25-258, limits assumed)",
  "T1 sequence (looked up)": "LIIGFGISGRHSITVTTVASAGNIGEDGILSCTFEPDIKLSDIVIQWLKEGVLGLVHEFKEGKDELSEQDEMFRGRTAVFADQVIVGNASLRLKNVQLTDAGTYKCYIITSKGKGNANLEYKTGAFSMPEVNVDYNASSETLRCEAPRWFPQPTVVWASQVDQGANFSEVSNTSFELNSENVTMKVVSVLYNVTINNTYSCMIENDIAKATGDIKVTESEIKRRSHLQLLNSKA",
  "experiment": "BLI",
  "note": "Results are given in words; binding and its absence hold for the method and conditions named. Some entries that bind do so weakly or less than the wild type.",
  "data": [
    {"binder": "PR006004 (antibody, V domains shown, also called R7004M1A2; anti-human B7-H4 HCAb monoclonal antibody) VH: EVQLVESGGGLVQPGGSLRLSCAASGFAFSNYWMHWARQVPGKGRVWISRISGDGRSTSYADSVKGRFTISRDNAKNMVYLQMNNLRAEDTAVYYCARDRFGDDYYYGMNVWGQGTTVTVSS", "values": [
      {"measurement": "binding", "value": "binds"}
    ]},
    {"binder": "PR006008 (antibody, IgG1, V domains shown, also called R7004M6D4; anti-human B7-H4 HCAb monoclonal antibody) VH: EVQLVESGGGLVQPGGSLRLSCAASGFTFTDFWMHWVRQVPGKGREWVSRISPDGSSTSYEDSVKGRFTISRDNAKNTVYLQMHGLRAEDTAVYYCTRFSTGWHRIEYFQHWGQGTLVTVSS", "values": [
      {"measurement": "binding", "value": "binds"}
    ]}
  ]
}
